In all, about 330,000 compounds went through this assay and about 100 (0.03%) were called active. Inconclusive results, whose numbers are uncertain, are shown with a selection of clear calls. Calls come from the whole dose curve; as a rule, active = well fitted inhibition curve with a large enough effect; inconclusive = small, poorly fitted or top-dose-only effect; inactive = flat fitted curve, though single readings scatter. A potency beside an inconclusive call is a rough fit, not a confirmed value.
tested on: Chaperonin Mm-Cpn (Methanococcus maripaludis); test: Inhibitors of TCP-1 ring complex (TRiC) of Methanococcus maripaludis (MmCpn): qHTS; details: purified Mm-Cpn ATPase, ADP Transcreener TR-FRET; series mostly up to 76.9 µM; note: nearly all actives have a fitted effect of over 80% in size;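 for potency: enzyme at 25 nM with ATP substrate at 10 µM during the reaction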
In short: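 Compound-treated chaperonin, 25 nM final, turns over 10 uM ATP at 37°C for 30 min following a 10 min preincubation; ADP generated competes with ADP-d2 for Eu-cryptate antibody, lowering FRET.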
Potency is the fitted concentration of half-maximal effect.

Potency, inactive:
O=C(c1ccco1)N(Cc1ccc(Cl)cc1)Cc1ccco1
CSc1ccccc1OCc1cc(C(=O)N2CCc3c(Cl)cccc3C2)no1
CCN(CC)S(=O)(=O)c1cccc(C(=O)N[C@H](C(=O)Nc2nc3ccccc3s2)C(C)C)c1
COC(=O)c1cc2ccccn2c2c(C(=O)OC)c(C(=O)OC)cc1-2
O=C(O/N=C1\CCCc2ccccc21)c1cccs1
CC(=Nc1cc(C(=O)c2ccccc2)ccc1N)C1=C(O)CC(C)(C)CC1=O
Nc1c(C(=O)Nc2ccc(Cl)cc2)oc2ccccc12
COc1ccc(Nc2cc(C(=O)NCCCN3CCN(C)CC3)c3ccccc3n2)cc1OC
CN1CCCN(Cc2ccc(Cl)cc2Cl)CC1
COc1ccc(N2CCN(c3ncnc4scc(-c5ccccc5)c34)CC2)cc1
O=C1CCN(CCc2ccccc2)CCN1CCSc1ccccc1
O=C1CCC2(CC1)NC(=O)N(c1ccccc1)N2
CC(=O)N(c1ccc(Cl)cc1)c1nc(C)cc(C)c1C#N
Cc1ccc(C)c(NC(=O)c2ccccc2NS(=O)(=O)c2cc([N+](=O)[O-])ccc2C)c1
CC1C/C(=C/c2cccn2C)C(=O)/C(=C/c2cccn2C)C1 (stereo not given)
O=C(c1ccc(-c2cc(Cl)ccc2Cl)o1)N1CCOCC1

Five structures already listed, arranged by length of the SMILES, low to high:
Potency, inactive:
CN1CCCN(Cc2ccc(Cl)cc2Cl)CC1
O=C1CCN(CCc2ccccc2)CCN1CCSc1ccccc1
CC(=O)N(c1ccc(Cl)cc1)c1nc(C)cc(C)c1C#N
COc1ccc(N2CCN(c3ncnc4scc(-c5ccccc5)c34)CC2)cc1
Cc1ccc(C)c(NC(=O)c2ccccc2NS(=O)(=O)c2cc([N+](=O)[O-])ccc2C)c1

Next part.

Potency, inconclusive:
COc1cccc(C2(O)CCN(C(=O)C3CC3)CC2)c1 50.1 µM [inhibitor, single point]
CC(=O)Nc1cc(C(=O)N2CCc3ccccc3C2)ccc1Sc1ccc(F)cc1 89.1 µM [inhibitor, partial curve, poor fit]
COC(=O)C(O)(NC(=O)OCc1ccccc1)C(F)(F)F (stereo not given) 14.1 µM [inhibitor, single point]
COCCNC(=O)C(c1cccs1)N(C(=O)Cn1nnc2ccccc21)c1cccc(C)c1 (stereo not given) 44.7 µM [inhibitor, single point]
COc1ccccc1CN1C[C@@H]2C[C@@H](c3ccccc3OC)N3CCC[C@@]23C1=O 15.8 µM [inhibitor, single point]
COc1ccc(C2=C/C(=C/c3cccnc3)C(=O)O2)cc1OC 100 µM [inhibitor, single point]
Cc1nc(-c2ccccc2)sc1C(=O)CSc1ccc(Cl)cc1 112 µM [inhibitor, single point]
O=C(NC1CCCC1)C(c1ccncc1)N(C(=O)c1csnn1)c1cccc(Cl)c1 (stereo not given) 44.7 µM [inhibitor, single point]
COc1ccccc1-c1sc2cc3c(cc2c1C#CCO)OCO3 63.1 µM [inhibitor, partial curve, poor fit]
O=C(Cn1cc(Cl)c([N+](=O)[O-])n1)NCCC1=CCCCC1 14.1 µM [inhibitor, single point]
COC(=O)c1[nH]c2ccc(C)cc2c1NC(=O)CN1CCCc2ccccc21 25.1 µM [inhibitor, single point]
Cc1ccc2nc(C(Cl)(Cl)Cl)nc(N/N=C/c3ccncc3)c2c1 100 µM [inhibitor, partial curve, poor fit]
COc1cc2sc3cc(NCc4ccc5c(c4)OCO5)ccc3c(=O)c2cc1OC 141 µM [inhibitor, partial curve, poor fit]
COC(=O)c1sccc1NC(=O)c1c(C)c(-c2cccc(Cl)c2)nc2ccccc12 56.2 µM [inhibitor, single point]
CC(=O)C(Sc1nc(N(C)C)nc(N(C)C)n1)C(=O)Nc1ccccc1 (stereo not given) 17.8 µM [inhibitor, single point]
CCSc1nnc(-c2ccc(S(=O)(=O)NCc3cccs3)cc2)o1 178 µM [inhibitor, partial curve, poor fit]
Cc1cc(N)n(-c2ccc(Cl)cc2)n1 11.2 µM [inhibitor, single point]
COc1cc(NC(=O)C2CCCN(S(=O)(=O)c3ccc4c(c3)CCCN4C(C)=O)C2)cc(OC)c1 (stereo not given) 100 µM [inhibitor, single point]
COc1ccccc1C(=O)N/C(=C\c1cn(C)c2ccccc12)C(=O)N1CCOCC1 63.1 µM [inhibitor, single point]
O=C(COC(=O)CNC(=O)c1ccc(Cl)c([N+](=O)[O-])c1)NCC1CCCO1 (stereo not given) 14.1 µM [inhibitor, single point]
Cc1cccc(NC(=O)N2CCN(Cc3ccc4c(c3)OCO4)CC2)c1C 17.8 µM [inhibitor, single point]
CCCN(C(=O)COc1ccc(Cl)cc1Cl)c1c(N)n(Cc2ccccc2)c(=O)[nH]c1=O 70.8 µM [inhibitor, single point]
COc1ccc(CCNC(=O)c2cc3c(=O)n(C)c4ccccc4c3n2C)c(OC)c1 89.1 µM [inhibitor, single point]
COc1ccccc1NS(=O)(=O)c1ccc(C(=O)NCCCn2ccnc2)cc1 15.8 µM [inhibitor, single point]
Cc1c(C(=O)OCCOc2ccc(Br)cc2)sc(=S)n1C 63.1 µM [inhibitor, single point]
Cc1ccc(NC(=O)CC2Oc3ccccc3NC2=O)c(C)c1 (stereo not given) 100 µM [inhibitor, single point]
CS(=O)(=O)N1N=C(c2ccc3nccnc3c2)CC1c1ccccc1 (stereo not given) 31.6 µM [inhibitor, single point]
CCN1C(=O)/C(=C/N2CCc3ccccc32)SC1=S 112 µM [inhibitor, single point]
NS(=O)(=O)c1ccc(CCNC(=O)COC(=O)C2CCCN2C(=O)c2cccs2)cc1 (stereo not given) 89.1 µM [inhibitor, single point]
COc1ccc(S(=O)(=O)N2CCN(C(=O)c3ccco3)CC2)c(C)c1C 100 µM [inhibitor, single point]
CCc1ccc(NC(=O)C(=O)NCCN2CCN(S(C)(=O)=O)CC2)cc1 22.4 µM [inhibitor, single point]
CCCn1c(CN2CCN(C(=O)c3ccco3)CC2)nc2c1c(=O)n(C)c(=O)n2C 14.1 µM [inhibitor, single point]
COc1ccc(C)cc1NC(=O)CCNS(=O)(=O)c1ccc2c(c1)CCC(=O)N2 100 µM [inhibitor, single point]
Cc1cccc2c(C(=O)Nc3ccc(Br)cc3)cc(-c3ccccn3)nc12 100 µM [inhibitor, single point]
COc1ccc(N2CCN(C(=O)C3CC(=O)N(c4ccc(C)cc4)C3)CC2)cc1 (stereo not given) 89.1 µM [inhibitor, single point]
CC(=O)N1c2ccc(S(=O)(=O)NCCC(=O)Nc3ccc(OC(F)(F)F)cc3)cc2CC1C (stereo not given) 56.2 µM [inhibitor, single point]
COc1ccc(-c2cc(C(=O)NCCc3ccc(S(N)(=O)=O)cc3)c3ccccc3n2)cc1 63.1 µM [inhibitor, single point]
Cc1ccc(C(c2nnnn2C(C)(C)C)N2CCC(C)CC2)cc1 (stereo not given) 22.4 µM [inhibitor, single point]
COC(=O)C1=C(C)N(CCc2ccccc2)C(=O)C1(NS(=O)(=O)c1ccc(NC(C)=O)cc1)C(F)(F)F (stereo not given) 89.1 µM [inhibitor, single point]
CC(=O)NC(CC(=O)Nc1ccc(S(=O)(=O)N2CCCCC2)cc1)c1ccccc1 (stereo not given) 12.6 µM [inhibitor, single point]
Cc1cc(C)n(S(=O)(=O)c2ccccc2[N+](=O)[O-])n1 20 µM [inhibitor, single point]
COc1ccc(N(C(=O)CNC(=O)c2ccco2)C(C(=O)NC2CCCC2)c2ccco2)cc1 (stereo not given) 89.1 µM [inhibitor, single point]
O=C(NCc1ccc2c(c1)OCO2)c1ccc(C2SCC(=O)N2Cc2ccco2)cc1 (stereo not given) 100 µM [inhibitor, single point]
COC(=O)c1c(NC(=O)C2CCC2)sc(C(=O)N(C)C)c1C 17.8 µM [inhibitor, single point]
N#C/C(=C\Nc1ccccc1SC(F)(F)F)c1nc(-c2ccccc2)cs1 56.2 µM [inhibitor, single point]
CCOC(=O)C(C)CC(C)C(=O)N1CCOCCN(C(=O)C(C)CC(C)C(=O)OCC)CCOCC1 (stereo not given) 50.1 µM [inhibitor, single point]
O=C(O)C/C(=C\c1cc2c(cc1Br)OCO2)c1nc2ccccc2s1 100 µM [inhibitor, single point]
Cc1cc(SCC(=O)c2ccc3c(c2)OCO3)nc2ccccc12 70.8 µM [inhibitor, partial curve, poor fit]
COc1ccc(-n2nnnc2SCC(=O)c2cc3ccccc3o2)cc1 100 µM [inhibitor, partial curve, poor fit]
